In publication PMC9655893:
These are yes or no findings as the source states them, for the method shown. In cells and extracts the contact can be indirect. Some entries that bind do so weakly or less than the wild type.

Protein sequences, listed by entry. Tags and fused reporters are not part of them.
UniProt P09104: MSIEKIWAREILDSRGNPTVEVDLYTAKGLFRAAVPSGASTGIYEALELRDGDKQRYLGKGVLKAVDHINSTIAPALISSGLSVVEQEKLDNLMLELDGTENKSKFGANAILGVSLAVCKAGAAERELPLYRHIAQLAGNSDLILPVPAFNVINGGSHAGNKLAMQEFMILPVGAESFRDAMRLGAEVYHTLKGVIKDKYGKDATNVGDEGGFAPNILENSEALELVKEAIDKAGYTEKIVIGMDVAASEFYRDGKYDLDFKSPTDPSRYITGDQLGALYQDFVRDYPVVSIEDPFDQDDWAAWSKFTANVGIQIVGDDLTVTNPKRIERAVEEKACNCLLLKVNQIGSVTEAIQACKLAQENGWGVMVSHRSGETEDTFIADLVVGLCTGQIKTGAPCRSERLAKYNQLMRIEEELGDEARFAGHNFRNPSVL

Target: T1, adaptor protein FAM159B (human (endogenous in BON-1)) (UniProt A6NKW6)
T1 sequence: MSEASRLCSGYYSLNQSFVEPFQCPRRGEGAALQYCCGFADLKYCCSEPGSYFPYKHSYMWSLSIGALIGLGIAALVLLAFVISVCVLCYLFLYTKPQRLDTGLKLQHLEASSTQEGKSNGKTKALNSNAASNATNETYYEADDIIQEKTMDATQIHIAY
Assay: co-IP; endogenous proteins in BON-1 lysate (150 mM NaCl, 50 mM Tris-HCl pH 7.4, 5 mM EDTA, 1% Triton X-100, 0.5% Na-deoxycholate, 0.1% SDS); precleared with protein A/G PLUS agarose beads; precipitated with anti-FAM159B HPA011778 for 1 h at 4 °C, then new protein A/G beads; blot with anti-NSE antibody

binding: binds
Substance: neuron-specific enolase (from UniProt P09104 1-434) (enzyme)
